Laboratory results: the supplement of paper PMC4604168 (melanoma cell lines)
The list shows a part of the results. Repeats are few or missing, and single values can be far off.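 Imaging used 1,536-well plates; nuclei positive for cleaved PARP by antibody were divided by total DNA-stained nuclei to yield the apoptosis fraction. Doses for screening kept most cells viable, and cell lines differ markedly in resting and induced cleaved-PARP levels.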

Tests used:
Assay in all cases: cleaved PARP positive nuclei fraction relative to DMSO control; melanoma cells; higher = more apoptosis
Conditions in all cases: library dose: low library concentration; 72 h
[1] = test system: MZ2-MEL
[2] = test system: MeWo
[3] = test system: RPMI7951
[4] = test system: RVH-421
[5] = test system: SkMel28
[6] = test system: SkMel2
[7] = test system: SkMel30
[8] = test system: SkMel5
[9] = test system: UACC257
[10] = test system: UACC62
[11] = test system: WM115
[12] = test system: WM1716
[13] = test system: WM1745
[14] = test system: WM3526
[15] = test system: WM3619
[16] = test system: WM451Lu

| SMILES | cleaved PARP positive nuclei fraction [1] [%] | cleaved PARP positive nuclei fraction [2] [%] | cleaved PARP positive nuclei fraction [3] [%] | cleaved PARP positive nuclei fraction [4] [%] | cleaved PARP positive nuclei fraction [5] [%] | cleaved PARP positive nuclei fraction [6] [%] | cleaved PARP positive nuclei fraction [7] [%] | cleaved PARP positive nuclei fraction [8] [%] | cleaved PARP positive nuclei fraction [9] [%] | cleaved PARP positive nuclei fraction [10] [%] | cleaved PARP positive nuclei fraction [11] [%] | cleaved PARP positive nuclei fraction [12] [%] | cleaved PARP positive nuclei fraction [13] [%] | cleaved PARP positive nuclei fraction [14] [%] | cleaved PARP positive nuclei fraction [15] [%] | cleaved PARP positive nuclei fraction [16] [%] |
| --- | --- | --- | --- | --- | --- | --- | --- | --- | --- | --- | --- | --- | --- | --- | --- | --- |
| O=C(/C=C/c1cccnc1)NCCCCC1CCN(C(=O)c2ccccc2)CC1 + CC(C)(C)c1cnc(CSc2cnc(NC(=O)C3CCNCC3)s2)o1 [SNS-032] (first compound 0.01 µM, partner dose 0.01 µM) | 1980 | 62.6 | 79.5 | 134 | 70.4 | 454 | 82.2 | 40.2 | 111 | 39.7 | 247 | 127 | 99.4 | 61.8 | 176 | 156 |
| Cc1ccc(Nc2nccc(N(C)c3ccc4c(C)n(C)nc4c3)n2)cc1S(N)(=O)=O [Pazopanib] + CCN(CC)CCCCNc1ncc2cc(-c3cc(OC)cc(OC)c3)c(NC(=O)NC(C)(C)C)nc2n1 [PD173074] (first compound 0.4 µM, partner dose 0.1 µM) | 105 | 72.2 | 77.1 | 81.8 | 178 | 95.9 | 70.9 | 93.8 | 159 | 59.6 | 63 | 110 | 89.5 | 233 | 109 | 68.8 |
| O=c1[nH]nc(Sc2ncc([N+](=O)[O-])s2)n1-c1ccc2c(c1)OCCO2 + Oc1cc(-c2nc(-c3ccccc3)[nH]c2-c2ccncc2)ccc1Cl [L779450] (first compound 0.2 µM, partner dose 0.2 µM) | 143 | 43.6 | 121 | 116 | 91.2 | 170 | 87.2 | 68.3 | 57.5 | 146 | 92.5 | 61.2 | 102 | 258 | 84.7 | 67.1 |
| CC[C@]1(O)C[C@H]2CN(CCc3c([nH]c4ccccc34)[C@@](C(=O)OC)(c3cc4c(cc3OC)N(C=O)[C@H]3[C@@](O)(C(=O)OC)[C@H](OC(C)=O)[C@]5(CC)C=CCN6CC[C@]43[C@@H]65)C2)C1 [vincristine] + C[C@@H]1CCN(C(=O)CC#N)C[C@@H]1N(C)c1ncnc2[nH]ccc12 [CP690550] (first compound 0.0001 µM, partner dose 1 µM) | 122 | 108 | 127 | 43.7 | 82.4 | 128 | 104 | 87.1 | 184 | 117 | 339 | 164 | 104 | 110 | 163 | 190 |
| N#CC[C@H](C1CCCC1)n1cc(-c2ncnc3[nH]ccc23)cn1 [ruxolitinib] + O=C(CCCCCCC(=O)Nc1ccccc1)NO [vorinostat] (first compound 1 µM, partner dose 0.08 µM) | 129 | 41.5 | 73 | 117 | 61.9 | 85 | 48.5 | 67.8 | 85.7 | 123 | 49.2 | 39.3 | 82.7 | 71.4 | 102 | 602 |
| Cc1cc(Nc2cc(N3CCN(C)CC3)nc(Sc3ccc(NC(=O)C4CC4)cc3)n2)n[nH]1 [Tozasertib] + COC(=O)c1sccc1S(=O)(=O)Nc1ccc(Nc2ccccc2)cc1OC [GSK0660] (first compound 0.006 µM, partner dose 1 µM) | 137 | 158 | 102 | 126 | 120 | 46.4 | 41.6 | 74.5 | 189 | 122 | 150 | 86.3 | 91.3 | 123 | 96.2 | 113 |
| COc1cc([C@@H]2c3cc4c(cc3[C@@H](O[C@@H]3O[C@@H]5CO[C@@H](C)O[C@H]5[C@H](O)[C@H]3O)[C@H]3COC(=O)[C@H]23)OCO4)cc(OC)c1O [etoposide] + COc1ccc(COc2ccc(Cc3cnc(N)nc3N)cc2OC)cc1 [GW2580] (first compound 0.02 µM, partner dose 1 µM) | 141 | 41.8 | 70.1 | 44 | 56.5 | 21.9 | 35 | 78 | 73.1 | 89.7 | 109 |  | 94 | 167 | 94.5 | 88.6 |
| Cc1cc(Nc2cc(N3CCN(C)CC3)nc(Sc3ccc(NC(=O)C4CC4)cc3)n2)n[nH]1 [Tozasertib] + O=C(Nc1cccc(Cl)c1)Nc1ncc(CCNc2ncnc3ccsc23)s1 [SNS314] (first compound 0.006 µM, partner dose 0.0008 µM) | 139 | 151 | 236 | 59.8 | 62.2 | 98.9 | 62.3 | 65.7 | 64.8 | 36.1 | 116 | 81.6 | 116 | 64.9 | 83.5 | 53.8 |
| Cc1ccc(Nc2nccc(N(C)c3ccc4c(C)n(C)nc4c3)n2)cc1S(N)(=O)=O [Pazopanib] + C[C@@H]1CCN(C(=O)CC#N)C[C@@H]1N(C)c1ncnc2[nH]ccc12 [CP690550] (first compound 0.4 µM, partner dose 1 µM) | 32.1 | 206 | 56.4 | 34.8 | 59.7 | 80.8 | 153 | 716 | 281 | 137 | 74.7 | 55.9 | 160 | 300 | 94 | 66.6 |
| Cc1cc(Nc2cc(N3CCN(C)CC3)nc(Sc3ccc(NC(=O)C4CC4)cc3)n2)n[nH]1 [Tozasertib] + COc1cc2c(Oc3ccc4[nH]c(C)cc4c3F)ncnc2cc1OCCCN1CCCC1 [cediranib] (first compound 0.006 µM, partner dose 0.4 µM) | 210 | 106 | 105 | 75 | 124 | 31.1 | 119 | 75.6 | 92.7 | 269 | 98.5 | 87.1 | 110 | 49.9 | 100 | 127 |
| O=C(Nc1cc(C(F)(F)F)cc(C(F)(F)F)c1)c1cc(Cl)ccc1O + Oc1cc(-c2nc(-c3ccccc3)[nH]c2-c2ccncc2)ccc1Cl [L779450] (first compound 0.016 µM, partner dose 0.2 µM) | 93 | 124 | 29.7 | 222 | 149 | 110 | 85.5 | 67 | 173 | 218 | 120 | 75.1 | 87.9 | 108 | 109 | 40.1 |
| CC[C@]1(O)C[C@H]2CN(CCc3c([nH]c4ccccc34)[C@@](C(=O)OC)(c3cc4c(cc3OC)N(C=O)[C@H]3[C@@](O)(C(=O)OC)[C@H](OC(C)=O)[C@]5(CC)C=CCN6CC[C@]43[C@@H]65)C2)C1 [vincristine] + OCCn1cc(-c2cnc3nnn(Cc4ccc5ncccc5c4)c3n2)cn1 [PF04217903] (first compound 0.0001 µM, partner dose 1 µM) | 88.4 | 67.3 | 79.1 | 80.3 | 61.9 | 82.6 | 80.8 | 137 | 108 | 50.4 | 223 | 218 | 277 | 40.5 | 111 | 36.3 |
| O=c1[nH]nc(Sc2ncc([N+](=O)[O-])s2)n1-c1ccc2c(c1)OCCO2 + CCc1ccc(CCOc2ccc(CC3SC(=O)NC3=O)cc2)nc1 [pioglitazone] (first compound 0.2 µM, partner dose 2 µM) | 82.2 | 82.4 | 78.4 | 43.5 | 72.4 | 43.7 | 49.4 | 78.3 | 293 | 76.6 | 127 | 278 | 104 | 39.6 | 87.2 | 45.5 |
| COc1cc([C@@H]2c3cc4c(cc3[C@@H](O[C@@H]3O[C@@H]5CO[C@@H](C)O[C@H]5[C@H](O)[C@H]3O)[C@H]3COC(=O)[C@H]23)OCO4)cc(OC)c1O [etoposide] + CN(C)S(=O)(=O)c1ccc2c(c1)/C(=C/c1cc3c([nH]1)CCCC3)C(=O)N2 [SU6656] (first compound 0.02 µM, partner dose 0.4 µM) | 92.9 | 153 | 94.4 | 211 | 62.7 | 84 | 139 | 67.4 | 98.3 | 168 | 67.7 | 124 | 76.8 | 36.1 | 106 | 19.9 |
| COc1cc([C@@H]2c3cc4c(cc3[C@@H](O[C@@H]3O[C@@H]5CO[C@@H](C)O[C@H]5[C@H](O)[C@H]3O)[C@H]3COC(=O)[C@H]23)OCO4)cc(OC)c1O [etoposide] + COc1ccc(-c2ccc3c(N4CCOCC4)nc(N4C[C@@H](C)O[C@@H](C)C4)nc3n2)cc1CO [KU0063794] (first compound 0.02 µM, partner dose 0.02 µM) | 68 | 39.9 | 66.7 | 42.8 | 219 | 120 | 102 | 168 | 115 | 236 | 128 | 56.2 | 90.9 | 75.1 | 102 | 45.8 |
| O=C(Nc1cc(C(F)(F)F)cc(C(F)(F)F)c1)c1cc(Cl)ccc1O + COc1cc(N2CCC(N3CCN(C)CC3)CC2)ccc1Nc1ncc(Cl)c(Nc2ccccc2S(=O)(=O)C(C)C)n1 [NVP-TAE684] (first compound 0.016 µM, partner dose 0.08 µM) | 189 | 151 | 38.6 | 153 | 179 | 125 | 75.5 | 254 | 156 | 134 | 87.2 | 52.4 | 111 | 57 | 112 | 230 |
| Cc1cn(-c2cc(NC(=O)c3ccc(C)c(Nc4nccc(-c5cccnc5)n4)c3)cc(C(F)(F)F)c2)cn1 [nilotinib] + c1cc(-c2cnn3cc(-c4ccc(OCCN5CCCCC5)cc4)cnc23)ccn1 [Dorsomorphin] (first compound 0.2 µM, partner dose 0.4 µM) | 37 | 73.2 | 150 | 64.9 | 110 | 59.1 | 39.2 | 177 | 160 | 66.6 | 56.1 | 45.5 | 113 | 70.8 | 79.7 | 136 |
| COc1cc([C@@H]2c3cc4c(cc3[C@@H](O[C@@H]3O[C@@H]5CO[C@@H](C)O[C@H]5[C@H](O)[C@H]3O)[C@H]3COC(=O)[C@H]23)OCO4)cc(OC)c1O [etoposide] + NCC(=O)Nc1ccc(-n2nc(C(F)(F)F)cc2-c2ccc3c(ccc4ccccc43)c2)cc1 [OSU03012] (first compound 0.02 µM, partner dose 1 µM) | 35.1 | 129 | 88.7 | 117 | 73.8 | 86.5 | 130 | 143 | 70.6 | 130 | 70 | 73.4 | 99.1 | 111 | 96 | 45.3 |

Just cleaved PARP positive nuclei fraction [13] [%], cleaved PARP positive nuclei fraction [16] [%] and cleaved PARP positive nuclei fraction [11] [%] (two entries from above):
SMILES,cleaved PARP positive nuclei fraction [13] [%],cleaved PARP positive nuclei fraction [16] [%],cleaved PARP positive nuclei fraction [11] [%]
"O=C(Nc1cc(C(F)(F)F)cc(C(F)(F)F)c1)c1cc(Cl)ccc1O + COc1cc(N2CCC(N3CCN(C)CC3)CC2)ccc1Nc1ncc(Cl)c(Nc2ccccc2S(=O)(=O)C(C)C)n1 [NVP-TAE684] (first compound 0.016 µM, partner dose 0.08 µM)",111,230,87.2
"Cc1cn(-c2cc(NC(=O)c3ccc(C)c(Nc4nccc(-c5cccnc5)n4)c3)cc(C(F)(F)F)c2)cn1 [nilotinib] + c1cc(-c2cnn3cc(-c4ccc(OCCN5CCCCC5)cc4)cnc23)ccn1 [Dorsomorphin] (first compound 0.2 µM, partner dose 0.4 µM)",113,136,56.1
